According to article PMC8605363:
Results are given in words; binding and its absence hold for the method and conditions named. In cells and extracts the contact can be indirect. Here binding means that the protein was enriched with, or labelled near, the bait; the list need not be complete. Values belong to the binder of their own block, whether it stands above or below them.

Target: T1, CBLL1 (human (endogenous in HUVEC)) (UniProt Q75N03)
T1 sequence: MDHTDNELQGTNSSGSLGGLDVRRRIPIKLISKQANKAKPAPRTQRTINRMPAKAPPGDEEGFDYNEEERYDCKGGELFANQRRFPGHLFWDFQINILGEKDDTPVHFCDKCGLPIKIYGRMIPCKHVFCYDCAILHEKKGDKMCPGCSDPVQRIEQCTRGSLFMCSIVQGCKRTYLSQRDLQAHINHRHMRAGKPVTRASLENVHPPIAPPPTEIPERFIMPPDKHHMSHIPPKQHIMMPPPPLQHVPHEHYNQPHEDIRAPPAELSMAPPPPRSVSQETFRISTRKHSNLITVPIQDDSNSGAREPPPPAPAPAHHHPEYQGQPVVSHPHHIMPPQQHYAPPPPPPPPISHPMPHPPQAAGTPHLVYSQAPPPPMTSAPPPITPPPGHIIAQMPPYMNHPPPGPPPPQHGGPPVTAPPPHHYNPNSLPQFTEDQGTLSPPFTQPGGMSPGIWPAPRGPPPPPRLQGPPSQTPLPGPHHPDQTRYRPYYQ
Test: affinity purification with mass spectrometry; endogenous CBLL1 immunopurified from HUVEC whole cell lysates (lysis buffer with 250 mM KCl, 0.1% NP-40, Benzonase) with anti-CBLL1 monoclonal antibodies cross-linked to Dynabeads Protein G, 4 h at 4 °C; washed with 0.5 M KCl-HEGN and 0.1 M KCl-HEGN; shotgun LC/MS/MS; negative control anti-gp64 antibody

binding: binds
B1: cleavage and polyadenylation-specific factor CPSF2 (protein, UniProt Q9P2I0 1-782)
chain: MTSIIKLTTLSGVQEESALCYLLQVDEFRFLLDCGWDEHFSMDIIDSLRKHVHQIDAVLLSHPDPLHLGALPYAVGKLGLNCAIYATIPVYKMGQMFMYDLYQSRHNTEDFTLFTLDDVDAAFDKIQQLKFSQIVNLKGKGHGLSITPLPAGHMIGGTIWKIVKDGEEEIVYAVDFNHKREIHLNGCSLEMLSRPSLLITDSFNATYVQPRRKQRDEQLLTNVLETLRGDGNVLIAVDTAGRVLELAQLLDQIWRTKDAGLGVYSLALLNNVSYNVVEFSKSQVEWMSDKLMRCFEDKRNNPFQFRHLSLCHGLSDLARVPSPKVVLASQPDLECGFSRDLFIQWCQDPKNSIILTYRTTPGTLARFLIDNPSEKITEIELRKRVKLEGKELEEYLEKEKLKKEAAKKLEQSKEADIDSSDESDIEEDIDQPSAHKTKHDLMMKGEGSRKGSFFKQAKKSYPMFPAPEERIKWDEYGEIIKPEDFLVPELQATEEEKSKLESGLTNGDEPMDQDLSDVPTKCISTTESIEIKARVTYIDYEGRSDGDSIKKIINQMKPRQLIIVHGPPEASQDLAECCRAFGGKDIKVYMPKLHETVDATSETHIYQVRLKDSLVSSLQFCKAKDAELAWIDGVLDMRVSKVDTGVILEEGELKDDGEDSEMQVEAPSDSSVIAQQKAMKSLFGDDEKETGEESEIIPTLEPLPPHEVPGHQSVFMNEPRLSDFKQVLLREGIQAEFVGGVLVCNNQVAVRRTETGRIGLEGCLCQDFYRIRDLLYEQYAIV

binding: binds
B2: cleavage and polyadenylation-specific factor CPSF1 (protein, UniProt Q10570 1-1443)
chain: MYAVYKQAHPPTGLEFSMYCNFFNNSERNLVVAGTSQLYVYRLNRDAEALTKNDRSTEGKAHREKLELAASFSFFGNVMSMASVQLAGAKRDALLLSFKDAKLSVVEYDPGTHDLKTLSLHYFEEPELRDGFVQNVHTPRVRVDPDGRCAAMLVYGTRLVVLPFRRESLAEEHEGLVGEGQRSSFLPSYIIDVRALDEKLLNIIDLQFLHGYYEPTLLILFEPNQTWPGRVAVRQDTCSIVAISLNITQKVHPVIWSLTSLPFDCTQALAVPKPIGGVVVFAVNSLLYLNQSVPPYGVALNSLTTGTTAFPLRTQEGVRITLDCAQATFISYDKMVISLKGGEIYVLTLITDGMRSVRAFHFDKAAASVLTTSMVTMEPGYLFLGSRLGNSLLLKYTEKLQEPPASAVREAADKEEPPSKKKRVDATAGWSAAGKSVPQDEVDEIEVYGSEAQSGTQLATYSFEVCDSILNIGPCANAAVGEPAFLSEEFQNSPEPDLEIVVCSGHGKNGALSVLQKSIRPQVVTTFELPGCYDMWTVIAPVRKEEEDNPKGEGTEQEPSTTPEADDDGRRHGFLILSREDSTMILQTGQEIMELDTSGFATQGPTVFAGNIGDNRYIVQVSPLGIRLLEGVNQLHFIPVDLGAPIVQCAVADPYVVIMSAEGHVTMFLLKSDSYGGRHHRLALHKPPLHHQSKVITLCLYRDLSGMFTTESRLGGARDELGGRSGPEAEGLGSETSPTVDDEEEMLYGDSGSLFSPSKEEARRSSQPPADRDPAPFRAEPTHWCLLVRENGTMEIYQLPDWRLVFLVKNFPVGQRVLVDSSFGQPTTQGEARREEATRQGELPLVKEVLLVALGSRQSRPYLLVHVDQELLIYEAFPHDSQLGQGNLKVRFKKVPHNINFREKKPKPSKKKAEGGGAEEGAGARGRVARFRYFEDIYGYSGVFICGPSPHWLLVTGRGALRLHPMAIDGPVDSFAPFHNVNCPRGFLYFNRQGELRISVLPAYLSYDAPWPVRKIPLRCTAHYVAYHVESKVYAVATSTNTPCARIPRMTGEEKEFETIERDERYIHPQQEAFSIQLISPVSWEAIPNARIELQEWEHVTCMKTVSLRSEETVSGLKGYVAAGTCLMQGEEVTCRGRILIMDVIEVVPEPGQPLTKNKFKVLYEKEQKGPVTALCHCNGHLVSAIGQKIFLWSLRASELTGMAFIDTQLYIHQMISVKNFILAADVMKSISLLRYQEESKTLSLVSRDAKPLEVYSVDFMVDNAQLGFLVSDRDRNLMVYMYLPEAKESFGGMRLLRRADFHVGAHVNTFWRTPCRGATEGLSKKSVVWENKHITWFATLDGGIGLLLPMQEKTYRRLLMLQNALTTMLPHHAGLNPRAFRMLHVDRRTLQNAVRNVLDGELLNRYLYLSTMERSELAKKIGTTPDIILDDLLETDRVTAHF
